# PubChem BioAssay AID1259424 | University of Nebraska Medical Center – 2018
# Screen: 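Rank knockdowns across the genome by resemblance to the KSR1 depletion profile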 (primary screen)
# System: human HCT116 colon cancer cells
# Knock-down reagent: siRNA pool against human genes, 50 nM
# Read-out: 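Six signature mRNAs by branched-DNA multiplex assay, scaled to two housekeeping genes and non-targeting median, log2; matched to mean KSR1 knockdown profile by Pearson correlation and euclidean distance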
# Direction: mean correlation with KSR1 profile and KSR1 correlation: higher = expression change more like KSR1 knockdown; mean distance from KSR1 profile: higher = expression change less like KSR1 knockdown
# Shown is one part, drawn at random, of about 14,000 reagents tested. 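Higher correlation or smaller distance means closer resemblance to KSR1 loss; control wells, including KSR1 knockdowns, recur on many plates.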 Not given: the time to read-out.
gene knocked down,mean correlation with KSR1 profile,mean distance from KSR1 profile,"KSR1 correlation, replicate 1","KSR1 correlation, replicate 2","KSR1 correlation, replicate 3"
MAOB (monoamine oxidase B),-0.324,1.75,-0.54,-0.273,-0.572
CNN2 (calponin 2),0.127,2.64,0.164,0.142,-0.0843
GLIS2 (GLIS family zinc finger 2),-0.374,2.49,-0.177,-0.605,-0.22
MALT1 (MALT1 paracaspase),-0.13,3.5,-0.0376,0.157,-0.196
MYO5A (myosin VA),0.303,1.16,0.259,0.308,0.476
SPATA22 (spermatogenesis associated 22),-0.121,2.03,-0.325,0.482,-0.459
NKD1 (NKD inhibitor of Wnt signaling pathway 1),0.618,1.11,0.615,0.627,0.196
COMMD3 (COMM domain containing 3),0.257,1.36,0.197,0.16,0.32
DUSP23 (dual specificity phosphatase 23),-0.132,1.49,-0.243,-0.0443,-0.191
PCDHA13 (protocadherin alpha 13),0.125,1.71,0.408,-0.0211,-0.346
RPL5 (ribosomal protein L5),-0.231,2.67,-0.233,-0.407,-0.184
YRDC (yrdC N6-threonylcarbamoyltransferase domain containing),0.628,1.46,0.698,0.692,0.451
AGPAT5 (1-acylglycerol-3-phosphate O-acyltransferase 5),0.00968,4.01,0.193,-0.205,0.00632
DNAAF2 (dynein axonemal assembly factor 2),-0.616,4.03,-0.477,-0.765,-0.512
ZNHIT3 (zinc finger HIT-type containing 3),-0.474,1.23,-0.081,0.183,-0.841
DNAJC5 (DnaJ heat shock protein family (Hsp40) member C5),0.774,0.872,0.29,0.854,0.757
RIC3 (RIC3 acetylcholine receptor chaperone),-0.0841,2.25,-0.0127,-0.196,0.0933
PPP1R12C (protein phosphatase 1 regulatory subunit 12C),0.468,1.6,0.0886,0.54,0.632
GOSR2 (golgi SNAP receptor complex member 2),-0.281,1.49,-0.37,-0.342,-0.239
HYOU1 (hypoxia up-regulated 1),0.205,2.16,0.422,0.0837,0.214
SNX14 (sorting nexin 14),-0.753,3.53,-0.609,-0.681,-0.72
MAGEB2 (MAGE family member B2),0.085,2.33,0.0106,0.161,-0.00087
UGT1A10 (UDP glucuronosyltransferase family 1 member A10),0.575,1.6,0.383,0.64,0.635
TNFSF8 (TNF superfamily member 8),-0.462,2.21,-0.221,-0.755,-0.508

4 of these entries in another layout.
GLIS2 (GLIS family zinc finger 2) — mean correlation with KSR1 profile = -0.374; mean distance from KSR1 profile = 2.49; KSR1 correlation, replicate 1 = -0.177; KSR1 correlation, replicate 2 = -0.605; KSR1 correlation, replicate 3 = -0.22
MALT1 (MALT1 paracaspase) — mean correlation with KSR1 profile = -0.13; mean distance from KSR1 profile = 3.5; KSR1 correlation, replicate 1 = -0.0376; KSR1 correlation, replicate 2 = 0.157; KSR1 correlation, replicate 3 = -0.196
MYO5A (myosin VA) — mean correlation with KSR1 profile = 0.303; mean distance from KSR1 profile = 1.16; KSR1 correlation, replicate 1 = 0.259; KSR1 correlation, replicate 2 = 0.308; KSR1 correlation, replicate 3 = 0.476
SPATA22 (spermatogenesis associated 22) — mean correlation with KSR1 profile = -0.121; mean distance from KSR1 profile = 2.03; KSR1 correlation, replicate 1 = -0.325; KSR1 correlation, replicate 2 = 0.482; KSR1 correlation, replicate 3 = -0.459

Next entries follow.
gene knocked down,mean correlation with KSR1 profile,mean distance from KSR1 profile,"KSR1 correlation, replicate 1","KSR1 correlation, replicate 2","KSR1 correlation, replicate 3"
ATP5MC3 (ATP synthase membrane subunit c locus 3),0.446,1.81,0.477,0.335,0.411
TAF11 (TATA-box binding protein associated factor 11),-0.601,3.73,-0.405,-0.591,-0.538
GPRASP3,0.308,1.62,0.00351,0.319,0.399
IVNS1ABP (influenza virus NS1A binding protein),-0.0438,6.33,0.04,0.0575,-0.198
USP28 (ubiquitin specific peptidase 28),-0.234,1.53,-0.229,-0.24,-0.136
PARP3 (poly(ADP-ribose) polymerase family member 3),-0.365,3.45,-0.465,-0.548,0.0607
PLSCR2 (phospholipid scramblase 2),-0.546,4.65,-0.614,-0.353,-0.438
EDRF1 (erythroid differentiation regulatory factor 1),-0.109,2.04,0.155,-0.323,-0.193
ZNF32 (zinc finger protein 32),0.391,3.12,0.582,0.451,0.037
BTF3 (basic transcription factor 3),-0.799,2.37,-0.851,-0.624,-0.816
L3MBTL2 (L3MBTL histone methyl-lysine binding protein 2),0.471,3.21,0.367,0.524,0.345
HAT1 (histone acetyltransferase 1),0.0753,1.64,0.135,-0.19,-0.118
CD2AP (CD2 associated protein),0.245,1.48,0.198,0.182,0.167
SORBS1 (sorbin and SH3 domain containing 1),0.408,1.58,0.295,0.422,0.187
HYI (hydroxypyruvate isomerase (putative)),0.237,1.88,0.243,0.296,0.132
NFATC2 (nuclear factor of activated T cells 2),0.656,0.967,0.767,0.703,0.469
SCN8A (sodium voltage-gated channel alpha subunit 8),0.0302,1.62,-0.412,-0.217,0.352
RNF25 (ring finger protein 25),-0.436,2.26,-0.39,-0.698,-0.634
MGST2 (microsomal glutathione S-transferase 2),0.19,0.982,0.0739,0.404,-0.125
SOX14 (SRY-box transcription factor 14),-0.182,5.65,-0.292,0.0504,-0.428
DDX4 (DEAD-box helicase 4),-0.61,2.02,-0.505,-0.626,-0.521
SPCS2 (signal peptidase complex subunit 2),-0.0623,1.63,-0.156,0.0743,0.251
TXNDC5 (thioredoxin domain containing 5),0.682,1.46,0.691,0.66,0.725
IDI1 (isopentenyl-diphosphate delta isomerase 1),0.674,2.33,0.543,0.655,0.689
CYFIP2 (cytoplasmic FMR1 interacting protein 2),-0.621,1.84,-0.697,-0.818,-0.0456
MRPL49 (mitochondrial ribosomal protein L49),-0.356,2.87,-0.184,-0.362,-0.372
